Data: PubChem BioAssay AID588590 (National Center for Advancing Translational Sciences (NCATS), 2011)
Screen size: about 390,000 compounds; about 4,000 (1%) were called active. This list was built around the results that the source calls inconclusive (neither active nor inactive); the mix of calls is not that of the screen. Calls follow the shape of the dose curve; as a rule, active = well fitted inhibition curve with a large enough effect; inconclusive = small, poorly fitted or top-dose-only effect, or another doubt; inactive = no such curve, though single readings can be large or run the other way. A potency beside an inconclusive call is a rough fit, not a confirmed value.

The chains behind the UniProt entries cited, without tags or fusion partners. Where a name states a change or a piece, a line headed by the entry shows the natural chain unless it says otherwise.
UniProt Q9UNA4: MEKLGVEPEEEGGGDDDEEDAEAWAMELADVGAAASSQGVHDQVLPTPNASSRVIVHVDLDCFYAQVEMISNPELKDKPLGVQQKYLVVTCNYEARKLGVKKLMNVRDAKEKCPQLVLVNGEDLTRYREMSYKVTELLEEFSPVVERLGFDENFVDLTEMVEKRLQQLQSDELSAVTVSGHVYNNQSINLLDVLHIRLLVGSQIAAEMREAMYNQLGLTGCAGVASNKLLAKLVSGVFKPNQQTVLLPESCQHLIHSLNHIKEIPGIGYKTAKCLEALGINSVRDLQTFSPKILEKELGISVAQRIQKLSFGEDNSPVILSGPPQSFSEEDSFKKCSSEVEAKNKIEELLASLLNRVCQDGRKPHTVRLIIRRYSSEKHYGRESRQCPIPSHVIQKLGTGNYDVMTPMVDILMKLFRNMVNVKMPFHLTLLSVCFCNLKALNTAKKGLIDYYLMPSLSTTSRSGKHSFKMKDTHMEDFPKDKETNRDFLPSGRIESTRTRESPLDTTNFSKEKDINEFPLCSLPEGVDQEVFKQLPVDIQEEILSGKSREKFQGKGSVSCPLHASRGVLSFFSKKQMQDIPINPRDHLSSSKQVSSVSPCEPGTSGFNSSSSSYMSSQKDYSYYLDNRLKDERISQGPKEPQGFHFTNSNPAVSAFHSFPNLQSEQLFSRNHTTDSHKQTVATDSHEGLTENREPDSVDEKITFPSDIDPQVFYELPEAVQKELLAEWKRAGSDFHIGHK

biological target: DNA polymerase iota (Homo sapiens) (UniProt Q9UNA4); test: qHTS for Inhibitors of Polymerase Iota; settings: Pol iota fluorescent replication assay, 10 min; series mostly up to 115 µM; activity, negative = inhibition: at the top concentration
Procedure, shortened: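 Fluorescent replication assay read twice, at 0 min and 10 min after adding 50 nM (final) substrate. Enzyme (10 nM) and compounds were first incubated 15 min at room temperature; enzyme-free buffer wells were negative controls.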
Potency is read from the fitted curve at half-maximal effect.

| Structure (SMILES) | Potency | activity, negative = inhibition |
| --- | --- | --- |
| CCc1ccc(C2CC(=O)N3CN(c4ccccc4)CSC3=C2C#N)cc1 (configuration not stated) | inconclusive: 31.6 µM [inhibitor, single point] |  |
| Oc1ccc[n+](/C=C\c2ccccc2)c1 |  | inactive: -12.9% |
| CCN(CC)CCNCc1cc(Br)ccc1OCC(=O)NCc1ccccc1 | inconclusive: 39.8 µM [inhibitor, single point] |  |
| CCOC(=O)CN1C(=O)S/C(=C/c2ccco2)C1=O |  | inactive: 63.7% |
| Cc1cc(/C=N/NC(=O)C(O)(c2ccccc2)c2ccccc2)c(C)n1-c1cccc(C(=O)O)c1 | active: 15.8 µM |  |
| O=C(Cn1c(=O)oc2ccccc21)Nc1nc(-c2ccccc2)cs1 | inconclusive: 63.1 µM [inhibitor, partial curve, poor fit] |  |
| COc1ccc(NC(=S)NCCC(c2ccccc2)c2ccccc2)c(OC)c1 | inconclusive: 100 µM [inhibitor, single point] |  |
| CCOC(=O)Cc1ccc(NC(=O)N(Cc2ccc(CC)cc2)Cc2cn[nH]c2-c2ccc(OC)cc2)cc1 |  | inactive: -1.14% |
| C#CCN1C=C(C(=O)OCC)C(C)N(Cc2ccccc2I)S1(=O)=O (configuration not stated) |  | inactive: 9.3% |
| CCCOc1ccc(C(=O)N/N=C/c2ccc(-c3ccc(S(=O)(=O)Nc4ncccn4)cc3)o2)cc1 | inconclusive: 22.4 µM [inhibitor, full curve, poor fit] |  |
| O=C(Nc1ccccc1)c1ccc(CSc2ncccn2)cc1 | inconclusive: 17.8 µM [inhibitor, partial curve, poor fit] |  |
| COc1ccc(/C=C2\Oc3cc(OCC(=O)N4CCC[C@H]4C(=O)O)ccc3C2=O)c(OC)c1 | inconclusive: 12.6 µM [inhibitor, partial curve, poor fit] |  |
| COc1cccc(C2CC(C(F)(F)F)n3ncc(C(=O)NCC4CCCO4)c3N2)c1 (configuration not stated) | inconclusive: 79.4 µM [inhibitor, full curve] |  |
| CCc1nnc(NC(=O)c2nc(Cl)ccc2Cl)s1 | inconclusive: 89.1 µM [inhibitor, single point] |  |
| Cc1nn2c(=O)cc(COC(=O)c3cccs3)nc2s1 |  | inactive: -2.06% |
| Cc1cc(C)n(-c2c(F)c(F)c(CO)c(F)c2F)n1 | inconclusive: 89.1 µM [inhibitor, single point] |  |
| Nc1cc(S(=O)(=O)c2ccc(O)c(N)c2)ccc1O |  | inactive: -3.36% |
| COc1ccc(CN(C)CC(=O)NC2CCCc3ccccc32)cc1OC (configuration not stated) |  | inactive: 117% |
| Cc1cc(C)c2c(CC(=O)Nc3ccccc3C(F)(F)F)coc2c1 |  | inactive: -10.2% |
| CC1CCCC(C)N1C(=O)CN1CCN(c2nc(-c3ccc(F)cc3)cs2)CC1 (configuration not stated) | inconclusive: 35.5 µM [inhibitor, partial curve, poor fit] |  |
| O=C(Cn1cnnn1)OCC(=O)c1ccc(Cl)s1 | inconclusive: 22.4 µM [inhibitor, full curve, poor fit] |  |
| COc1ccnc(Oc2ccc(F)cc2)c1C(=O)N/C=N/OCc1ccc(Cl)cc1Cl | inconclusive: 89.1 µM [inhibitor, partial curve, poor fit] |  |

Entries shown so far containing a COOH group, in the order listed:

| Structure (SMILES) | Potency | activity, negative = inhibition |
| --- | --- | --- |
| Cc1cc(/C=N/NC(=O)C(O)(c2ccccc2)c2ccccc2)c(C)n1-c1cccc(C(=O)O)c1 | active: 15.8 µM |  |
| COc1ccc(/C=C2\Oc3cc(OCC(=O)N4CCC[C@H]4C(=O)O)ccc3C2=O)c(OC)c1 | inconclusive: 12.6 µM [inhibitor, partial curve, poor fit] |  |

Additional entries:

| Structure (SMILES) | Potency | activity, negative = inhibition |
| --- | --- | --- |
| CC1=NN(c2ccc(C(=O)O)c(N)c2)C(=O)C1 | active: 1.26 µM |  |
| Cc1ccc(S(=O)(=O)N2[C@@H](c3ccc(Br)cc3)C(C(=O)O)=CC[C@H]2c2ccc(Cl)cc2)cc1 | inconclusive: 0.794 µM [inhibitor, partial curve, poor fit] |  |
| CCS(=O)(=O)c1ncc(Cl)c(C(=O)NCc2ccc(OC)cc2)n1 | inconclusive: 15.8 µM [inhibitor, partial curve, poor fit] |  |
| COc1cccc(NC(=O)C(OC(=O)c2ccc([N+](=O)[O-])o2)c2ccccc2)c1 (configuration not stated) | inconclusive: 15.8 µM [inhibitor, partial curve, poor fit] |  |
| C#CCOCCOCCOCCNc1nc(N2CCN(C(=O)[C@H](CCC(=O)O)n3cc(C(N)[C@H](C)CC)nn3)CC2)nc(N2CCN(C(=O)[C@H](CCC(=O)O)n3cc(C(N)[C@H](C)CC)nn3)CC2)n1 (some centres not stated) | inconclusive: 79.4 µM [inhibitor, partial curve, poor fit] |  |
| O=C(COC(=O)/C=C/c1ccccc1Cl)NCc1ccco1 | inconclusive: 6.31 µM [inhibitor, full curve, poor fit] |  |
| CCOc1cccc(N(C(=O)c2ccco2)C(C(=O)NC2CCCC2)c2cccnc2)c1 (configuration not stated) |  | inactive: 33.8% |
| Cc1cccc(CN2CC34CCC(CC3S2(=O)=O)O4)c1 (configuration not stated) | inconclusive: 100 µM [inhibitor, single point] |  |
| CC(C)(C)c1nnc2sc(SCCN3C(=O)c4ccccc4C3=O)nn2c1=O | inconclusive: 31.6 µM [inhibitor, partial curve, poor fit] |  |
| CC(C)(C)NCc1ccccc1OCc1cccs1 | inconclusive: 79.4 µM [inhibitor, partial curve, poor fit] |  |
| Cc1oc2c(C)c3oc(=O)c(CC(=O)N4CCCCC4)c(C)c3cc2c1C |  | inactive: 18.8% |
| Cn1c(=O)c2c(nc(Oc3ccccc3Cl)n2Cc2ccc(C#N)cc2)n(C)c1=O |  | inactive: 11.7% |
| COc1ccc(CNC(=O)c2cc3ccccn3n2)cc1OC |  | inactive: 18.1% |
| CC(C)(C)c1cc(-c2nc(N)nc(N)n2)cc(C(C)(C)C)c1 | inconclusive: 89.1 µM [inhibitor, partial curve, poor fit] |  |
| Cc1ccc(-n2nc(C)c(C(=O)O)c2-n2cccc2)cc1 | inconclusive: 89.1 µM [inhibitor, single point] |  |
| COc1cc2c(NC3CCN(C)CC3)nc(N3CCCN(C)CC3)nc2cc1OCCCCN | active: 20 µM |  |
| CCC(C)NC(=O)CCC(=O)N1Cc2ccccc2Oc2ncccc21 (configuration not stated) |  | inactive: 16.9% |
| CC1=C(C(=O)N2CCN(c3ccccc3)CC2)C2(CCCCC2)OC1=O |  | inactive: -5.57% |
| CCOC(=O)C1CCN(C(=O)C(=O)N2CCC(C(=O)OCC)CC2)CC1 | inconclusive: 70.8 µM [inhibitor, single point] |  |
| COc1ccc(C2(CNC(=O)/C=C/c3ccco3)CCCC2)cc1OC | inconclusive: 28.2 µM [inhibitor, full curve] |  |
| C[C@@H]1C=C(C(=O)NCc2nc3ccccc3[nH]2)O[C@H](OCCCCO)C1 |  | inactive: -16.7% |
| COc1ccc(/C=C/C(=O)O)cc1S(=O)(=O)N1CCCc2ccccc21 |  | inactive: -0.318% |
| Cc1c(C(=O)NCc2ccco2)oc2c(Cl)cccc12 |  | inactive: 38.7% |

| Structure (SMILES) | Potency | activity, negative = inhibition |
| --- | --- | --- |
| Cc1ccc(NC(=O)Cn2cc(S(=O)(=O)Cc3ccc(F)cc3)c3ccccc32)cc1Cl | active: 79.4 µM |  |
| COc1ccc(Cl)cc1NC(=O)Cn1nnc(C(=O)NCCc2ccc(OC)c(OC)c2)c1N | inconclusive: 1.41 µM [inhibitor, full curve, poor fit] |  |
| O=C(CSc1nc(-c2ccccc2)cc(=O)[nH]1)N1CCc2ccccc21 | inconclusive: 7.08 µM [inhibitor, single point] |  |
| CCOC(=O)CSc1nc2cc3c(cc2c(=O)n1Cc1ccc(C(=O)NCCc2ccc(OC)c(OC)c2)cc1)OCO3 | inconclusive: 89.1 µM [inhibitor, partial curve, poor fit] |  |
| O=C(O)CCc1ccc(-c2cccs2)n1CCC(=O)O | inconclusive: 20 µM [inhibitor, full curve, poor fit] |  |
| COC1=C(Nc2ccc(OC)cc2)C(=O)c2ccccc2C1=O | inconclusive: 31.6 µM [inhibitor, partial curve, poor fit] |  |
| N#Cc1ccsc1NC(=O)COC(=O)CCS(=O)(=O)c1ccccc1 | inconclusive: 20 µM [inhibitor, full curve, poor fit] |  |
| COc1ccc(-c2cc(C(F)(F)F)c3c(n2)sc2c(O)cc(=O)[nH]c23)c(OC)c1 | inconclusive: 8.91 µM [inhibitor, full curve, poor fit] |  |
| O=C(/C=C/c1ccccc1)c1ccccc1O | inconclusive: 17.8 µM [inhibitor, partial curve, poor fit] |  |
| O=c1cc(N2CCCCC2)[nH]c(=O)n1C1CCCCC1 |  | inactive: -14.3% |
| N#Cc1c(-n2ncnc2-c2ccc(F)cc2)sc2c1CCCCC2 |  | inactive: 4.95% |
| O=C(NCc1ccccc1)c1ccc2c(c1)S(=O)(=O)c1cc(Cl)ccc1C2=O |  | inactive: 24.2% |
| O=C(C[n+]1cccc(Br)c1)c1ccc(O)c(O)c1 | inconclusive: 89.1 µM [inhibitor, single point] |  |
| O=C(COc1ccc(Br)cc1CNCCCN1CCOCC1)Nc1ccccc1 | inconclusive: 89.1 µM [inhibitor, single point] |  |
| C=CCN(c1ccccc1OC)S(=O)(=O)c1cccc(C(=O)NCC(c2ccc(OC)cc2)N2CCCC2)c1 (configuration not stated) |  | inactive: 20.1% |
| CN(C)CCNc1ccc2nnn3c4ccc(O)cc4c(=O)c1c23 | inconclusive: 89.1 µM [inhibitor, single point] |  |
| CC1=C(C(=O)OCc2ccccc2)C(c2cccc([N+](=O)[O-])c2)NC(=O)N1CCCCCC(=O)O (configuration not stated) |  | inactive: -8.14% |
| C=CCOc1ccc(/C(O)=C2/C(=O)C(=O)N(CCCn3ccnc3)C2c2cccs2)cc1 (configuration not stated) | inconclusive: 39.8 µM [inhibitor, partial curve] |  |
| CN(C)CCn1c(NCc2ccc3c(c2)OCO3)nc2ccccc21 | inconclusive: 39.8 µM [inhibitor, partial curve, poor fit] |  |
| Cc1cc(C(=O)COC(=O)c2ccc(N)cc2)c(C)n1-c1c(C)n(C)n(-c2ccccc2)c1=O | inconclusive: 39.8 µM [inhibitor, partial curve] |  |
| CC(NC(=O)c1ccc(N2CCNCC2)c([N+](=O)[O-])c1)C12CC3CC(CC(C3)C1)C2 (configuration not stated) |  | inactive: 6.58% |
